Test results as given in PMC2912835 (Journal of Experimental & Clinical Cancer Research : CR, 2010).

Assays:
Assay in all cases: cells
Details in all cases: Mus musculus, BaF3, 24 h, read-out: IC50 of Stably Transfected Ba/F3 Cell Survival
[1] = tested on: Ba/F3 cells stably transfected with KIT V560D/V654A
Experimental: (§1) The ability of Kit mutants to act as survival factors was assessed in Kit-dependent Ba/F3 cells. Ba/F3 cells stably transfected with various KIT mutants were seeded in a 96-well tissue culture plate at a density of 5 × 10^3 cells per well. […] Cell viability was assessed by measuring the level of adenosine triphosphate using ATPlite assays (PerkinElmer Life Sciences, Boston, MA). Reconstituted ATPLite 1-step solution was added to each well followed by incubation with shaking for 2 minutes. The plate was read on a Victor Model 1420 multilabel counter (PerkinElmer Inc.) under the luminescence setting.

[2] = tested on: Ba/F3 cells stably transfected with KIT Δ552-559
Experimental: as §1

[3] = tested on: Ba/F3 cells stably transfected with KIT AYins503-504
Experimental: as §1

[4] = tested on: Ba/F3 cells stably transfected with KIT Y823D
Experimental: as §1

[5] = tested on: Ba/F3 cells stably transfected with KIT V560D
Experimental: as §1

[6] = tested on: Ba/F3 cells stably transfected with KIT V560D/T670I
Experimental: as §1

Which results are given for Cc1ccc(NC(=O)c2ccc(CN3CCN(C)CC3)cc2)cc1Nc1nccc(-c2cccnc2)n1 [Imatinib, reference compound]?
IC50 [1]: 145 nM; IC50 [2]: 1 nM; IC50 [3]: 47 nM; IC50 [4]: 330 nM; IC50 [5]: 7 nM; IC50 [6]: > 3000 nM
